Measurements taken from publication doi:10.1101/2024.09.01.610734.
No constants are given. Whether binding was seen depends on the method and setting. Binding seen in cells or lysates may run through a third protein. These calls come from enrichment with a bait or labelling near it, and not all partners need be listed. Tags and fused reporters may be left off the sequences shown.

What was measured:
Assay in all cases: affinity purification with mass spectrometry
[1] = target: T1, mimivirus R336/R337, 3xHA tagged (Acanthamoeba polyphaga mimivirus) (UniProt E3VZZ4)
T1 sequence: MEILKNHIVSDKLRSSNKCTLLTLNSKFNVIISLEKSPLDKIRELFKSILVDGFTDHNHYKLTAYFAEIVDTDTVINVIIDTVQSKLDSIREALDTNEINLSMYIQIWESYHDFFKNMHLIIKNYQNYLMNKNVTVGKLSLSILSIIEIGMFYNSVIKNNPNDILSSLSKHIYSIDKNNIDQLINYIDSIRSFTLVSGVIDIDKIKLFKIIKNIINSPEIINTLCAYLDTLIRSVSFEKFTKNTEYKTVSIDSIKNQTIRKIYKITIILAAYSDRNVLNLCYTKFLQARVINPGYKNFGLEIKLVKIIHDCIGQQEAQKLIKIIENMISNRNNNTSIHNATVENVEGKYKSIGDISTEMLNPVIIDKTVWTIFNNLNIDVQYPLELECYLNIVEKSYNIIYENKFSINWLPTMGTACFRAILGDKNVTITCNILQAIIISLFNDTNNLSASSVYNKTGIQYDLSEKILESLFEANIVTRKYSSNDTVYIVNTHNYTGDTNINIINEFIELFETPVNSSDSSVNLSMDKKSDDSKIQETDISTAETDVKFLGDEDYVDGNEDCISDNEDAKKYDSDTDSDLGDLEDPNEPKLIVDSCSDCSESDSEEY

[2] = target: T2, mimivirus R562, 3xHA tagged (Acanthamoeba polyphaga mimivirus)
T2 sequence: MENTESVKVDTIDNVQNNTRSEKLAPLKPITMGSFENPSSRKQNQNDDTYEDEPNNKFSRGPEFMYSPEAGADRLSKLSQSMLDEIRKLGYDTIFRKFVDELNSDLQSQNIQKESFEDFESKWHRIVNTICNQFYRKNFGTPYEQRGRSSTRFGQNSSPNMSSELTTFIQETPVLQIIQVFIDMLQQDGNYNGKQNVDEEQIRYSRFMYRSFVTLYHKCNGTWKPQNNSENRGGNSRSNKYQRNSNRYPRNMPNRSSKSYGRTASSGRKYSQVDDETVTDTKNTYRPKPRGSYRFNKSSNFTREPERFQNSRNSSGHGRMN

[3] = target: T3, mimivirus R505, 3xHA tagged (Acanthamoeba polyphaga mimivirus)
T3 sequence: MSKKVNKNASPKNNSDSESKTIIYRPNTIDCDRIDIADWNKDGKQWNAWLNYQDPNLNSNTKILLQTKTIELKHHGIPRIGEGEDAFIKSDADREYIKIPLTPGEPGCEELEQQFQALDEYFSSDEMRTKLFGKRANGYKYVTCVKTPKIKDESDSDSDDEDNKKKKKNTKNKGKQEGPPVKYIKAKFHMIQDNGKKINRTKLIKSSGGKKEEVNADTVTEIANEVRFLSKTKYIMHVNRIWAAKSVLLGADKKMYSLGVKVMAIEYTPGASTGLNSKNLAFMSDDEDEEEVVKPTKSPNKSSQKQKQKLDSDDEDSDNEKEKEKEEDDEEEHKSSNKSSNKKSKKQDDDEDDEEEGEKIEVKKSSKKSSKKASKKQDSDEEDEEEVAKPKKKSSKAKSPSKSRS

Measured: binding

B1: Outer Layer Scaffold 1 (OLS1), mimivirus R561, virus-encoded untagged protein (protein, UniProt A0A0G2Y0Y5 1-256)
chain: MARGKKTQETGSSKRRSKVQEEEEHVEGSEEEVEEPEQKSSKRGSRKTTNSTSNKKKSVKKVESDDDDEDDLSELDVVVEDDNPVETSDNDEVATTPQQEKSSRSRKNRGDHESHDDNSDNEEQGDRGNRREHKPRPKVDPNTPIGKLATDQILQFLQERGEESFNPQLKHGARQLLNQLLGKYNGQRYGSKRGGPPRGSFGQRGGFNSRGRGMPPRMRQGDTRDTRDTRDTRLRFNTTQSNRRELNDQSDDLYND
binds: all assays above

B2: Inner Layer Scaffold 1 (ILS1), mimivirus R252, virus-encoded untagged protein (protein, UniProt E3VZE1 1-268)
chain: MSTRSNKKSTKTEKVAKATKPVENVEVSDNEVQEQAVKTKASGKKVTAKSTKQSGGKNAKSGSKSAKSGSKSAKSGSKTSKTQSGGKGDESRDRYFKLIDAKTGRSFGRYTGGTPKQAASKGFTKMIHKIKAEGGALPKNGTMKIYLRESTRGSPRKVYAYEATRKQLTEPQKIEIEGSDGKKKVITYRYRNVIHKVSAPLPNQLGGLKTSRSNKKSGETKKSGSRSSGSKRSAKPTKSAKNAKSTGNKKVSTKSAGAKKAPAAKASR
binds: all assays above
